Measured values as given in paper PMC11658772.
No constants are given. Whether binding was seen depends on the method and setting. Binding seen in cells or lysates may run through a third protein. Some binding calls cover weakened binding; strength is not graded here. Sequences can lack the tags named with a protein.

Target: T1, MSL1^Δ8-20-3xHA (Drosophila melanogaster) (UniProt P50535)
T1 sequence: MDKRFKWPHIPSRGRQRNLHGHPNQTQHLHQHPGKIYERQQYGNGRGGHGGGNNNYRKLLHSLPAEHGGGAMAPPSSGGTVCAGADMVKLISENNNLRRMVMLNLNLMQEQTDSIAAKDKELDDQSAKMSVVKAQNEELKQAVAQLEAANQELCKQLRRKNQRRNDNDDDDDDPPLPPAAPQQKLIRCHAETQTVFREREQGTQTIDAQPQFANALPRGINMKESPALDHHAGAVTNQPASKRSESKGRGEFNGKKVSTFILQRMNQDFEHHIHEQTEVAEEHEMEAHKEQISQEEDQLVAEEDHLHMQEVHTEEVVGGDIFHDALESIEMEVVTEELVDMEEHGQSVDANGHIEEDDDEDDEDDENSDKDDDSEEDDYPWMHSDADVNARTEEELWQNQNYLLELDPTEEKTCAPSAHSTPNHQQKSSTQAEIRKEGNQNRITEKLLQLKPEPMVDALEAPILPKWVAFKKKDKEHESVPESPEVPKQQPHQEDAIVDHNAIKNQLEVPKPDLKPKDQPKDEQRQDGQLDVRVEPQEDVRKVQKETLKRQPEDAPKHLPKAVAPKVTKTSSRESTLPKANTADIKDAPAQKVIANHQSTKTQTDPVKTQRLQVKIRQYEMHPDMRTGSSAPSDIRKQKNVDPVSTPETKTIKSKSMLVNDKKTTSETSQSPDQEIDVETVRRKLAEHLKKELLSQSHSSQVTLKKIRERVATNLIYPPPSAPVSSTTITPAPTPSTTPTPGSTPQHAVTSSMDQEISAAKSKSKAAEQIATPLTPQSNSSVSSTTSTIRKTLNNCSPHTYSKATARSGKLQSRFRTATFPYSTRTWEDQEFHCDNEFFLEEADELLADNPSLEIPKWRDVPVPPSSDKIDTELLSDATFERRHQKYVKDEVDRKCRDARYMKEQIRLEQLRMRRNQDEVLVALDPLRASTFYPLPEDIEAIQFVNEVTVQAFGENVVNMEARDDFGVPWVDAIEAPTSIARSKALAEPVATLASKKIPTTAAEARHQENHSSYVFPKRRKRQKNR
Assay: co-IP; Drosophila S2 cells co-transfected with MSL1*-3xHA and MSL2-3xFLAG, 48 hr; extract made with 420 mM NaCl; immunoprecipitation with anti-FLAG, anti-HA or mouse IgG (negative control) magnetic beads in buffer-150 (20 mM Tris-HCl pH 7.4, 150 mM NaCl, 10 mM MgCl2, 0.1% NP-40), overnight at 4 °C; immunoblot with anti-FLAG-HRP

binding: binds
B1: MSL2-3xFLAG (protein, UniProt P50534 1-773)
chain: MAQTAYLKVTRIAMRSASNLSKRRVEELNSGLGELRQLLSCVVCCQLLVDPYSPKGKRCQHNVCRLCLRGKKHLFPSCTQCEGCSDFKTYEENRMMAAQLLCYKTLCVHLLHSALFGELAGMRPQVARELVPRIKLPPKTTQEFIREGSNISDTFDIFLPQPDLPFLKDMPTSLPAETPPTSAVTTPELPYDHHLNISDIEAEAAATAEQGHFSPLPLLPTGSRMGMLSHAGQIVIATESSESGFMDQAWTDQVDLSGTVSVSKYTNSGNNFAVSYVMPTSATTKFDPQELQIGQVVQMADSTQLAVLAAVEETVETSTQLTVLSTTVEETVETSTQLEVLTSAEEPNEISDQLANLQVEESDEALVEETVEEAEGTSIPSEVVAEHMEEDQHLDVHTSQSPTQTEMEEAVEEHVATKTQLGHVQTELQDAESLQKDFEDAKAAAEEAKEKEKDLHAISAELQKEDSDEPTLKRKRTRTLKASQAAKIEPVPSEVKTKVQSGKGALRRIRGKDKEEKVKPPKPKCRCGISGSSNTLTTCRNSRCPCYKSYNSCAGCHCVCCKNPHKEDYVESDEDDDLEDFEMPKDVPEPMTQSEEPVVAEPRQEENSMAPPDSSAPISLVPLNNLQQSQHPLVLVQNEKGEYQGFNIFQGSKPLDPVTVGFTIRVQLQHTDGFGSLPQYAYIMPTIDPPNPPAPSLSPPPPPAPDREVIEPPAKKFRTSRTRRGRANFSALDTVDELVSGGSRSNSAAGDRSSATDNAHSLFEEIMSGSDDL
